Test results from patent publication US7652037B2, “Methods of lowering lipid levels in a mammal” (City Of Hope, priority 2003, dated 2010).
Some of these results come from one statement about several compounds together. At least one compound was matched to its structure with a doubt left.

Tested on: STZ-Diabetic Rats
Assay: Total plasma/serum triglycerides and cholesterol in STZ-diabetic rats (Example 2)
Type: in vivo, rat
Details: for reduction of increased concentrations of triglycerides and cholesterol: streptozotocin-induced diabetic rats; for reduction of plasma cholesterol / reduction of plasma triglycerides: diabetic rats, 30 weeks
Protocol: Male Sprague-Dawley rats (about 175 to 200 g) were adapted for one week prior to treatment, then rendered diabetic by intra-peritoneal injection of STZ (65 mg/kg in citrate buffer, pH 4.5) after an overnight fast. Control (non-diabetic) animals were injected with the buffer only. Diabetes was confirmed by measuring the plasma glucose concentrations 7 days after Streptozotocin (STZ)-injection. Only animals with a plasma glucose concentration greater than 20 mmol were classified as diabetic and used in the study. These diabetic rats were divided randomly into an untreated diabetic control group and a diabetic treatment group. The treatment group received an LR compound at 50 mg/l in their drinking water throughout the duration of the study (32 weeks for LR-90; 30 weeks for LR-9 and LR-74). All animals were housed individually and were given free access to food and water.
Blood (from the tail vein) and urine samples were collected from rats for glycemic control analysis and albuminuria measurements. Glycemia was monitored every 8 weeks by measuring plasma glucose and glycated hemoglobin. Plasma or serum also was tested for total cholesterol and total triglycerides. Progression of renal dysfunction was assessed by measuring urinary albumin to creatinine ratio (UA/Cr) and serum or plasma creatinine. For measurement of urinary albumin and creatinine concentrations, rats were housed in metabolic cages for 24 hours and urine was collected in a collection beaker with several drops of toluene to inhibit microbial growth.
At the end of study, the rats were weighed and anaesthetized with isoflourane and blood was drawn by heart puncture and transferred into heparinized and non-heparinized vacutainer tubes on ice. These blood samples were later centifuged for plasma and serum collection respectively, and stored at −70° C. until the time of analysis. Rats were killed by over-anesthetization and cardiac puncture and the kidneys were removed immediately, weighed, decapsulated and rinsed in PBS buffer. Sections of the kidneys were stored in 10% NBF for subsequent microscopic examinations and immunohistochemistry. The tail of each individual rat was cut, removed and stored in 50 mL conical tubes at −70° C.

| Compound | reduction of increased concentrations of triglycerides and cholesterol | reduction of plasma cholesterol [%] | reduction of plasma triglycerides |
| --- | --- | --- | --- |
| methylene bis(4,4′-(2-chlorophenylureidophenoxyisobutyric acid) [LR-90] | more than 50% | – | – |
| CC(Oc1cccc2cccnc12)C(=O)O (stereo not shown) [LR-74, 2-(8-quinolinoxy) propionic acid] | more than 50% | > 50 | more than 60% |
| CC(C)(Oc1ccc(NC(=O)c2ccc3ccccc3c2)cc1)C(=O)O [LR-9, 4-(2-napthylcarboxamido) phenoxyisobutyric acid] | more than 50% | > 50 | more than 60% |
